PubChem BioAssay AID248 (DTP/NCI, 2004)
The list is a part of this screen's results and no random one: it gathers some chemical classes. Other doses and runs of a compound may be missing. T/C: endpoint of the treated group in % of that of the vehicle group. Where survival is the endpoint, this PubChem deposit counts one and a half times the control or more as active, and values a quarter to a half above the control carry no call in these data; other NCI protocols may use other cut-offs. Some entries show no survivor count and are marked so; the dose need not have been tolerated. Schedules are NCI's codes, read here as Q, the interval in days (D) or hours (H), X, the number of doses. Marks such as (2×) give the number of equal values in this list. Some doses were run more than once; the values are given in rising order. Some schedules carry Z or #; the key to these is not given.

Tested on: L1210 leukemia ip in BDF1 mice, survival T/C
Experiment: NCI In Vivo Anticancer Drug Screen. Data for tumor model L1210 Leukemia (intraperitoneal) in B6D2F1 (BDF1) mice
Details: T/C endpoint: mean survival time, higher T/C = longer survival

## BrCCN(CCBr)CCCN(CCBr)CCBr
dose: 0.02 mg/kg/injection, schedule: Q01DX009 (ip), vehicle: saline
  T/C: 100 [survivor count not shown] (2×) and 107 % of control [survivor count not shown]
dose: 0.03 mg/kg/injection, schedule: Q01DX009 (ip), vehicle: saline
  T/C: 97 [survivor count not shown], 102 [survivor count not shown], 113 % of control [survivor count not shown]
dose: 0.06 mg/kg/injection, schedule: Q01DX009 (ip), vehicle: saline
  T/C: 115 [survivor count not shown], 120 [survivor count not shown], 131 % of control [survivor count not shown]
dose: 0.25 mg/kg/injection, schedule: Q01DX015 (ip), vehicle: other
  T/C: 112 % of control [survivor count not shown]
dose: 0.5 mg/kg/injection, schedule: Q01DX015 (ip), vehicle: other
  T/C: 119 % of control [survivor count not shown]
dose: 0.5 mg/kg/injection, schedule: Q04DX003 (ip), vehicle: saline
  T/C: 120 % of control [survivor count not shown]
dose: 1.0 mg/kg/injection, schedule: Q01DX015 (ip), vehicle: other
  T/C: 130 % of control [survivor count not shown]
dose: 2.0 mg/kg/injection, schedule: Q01DX015 (ip), vehicle: other
  T/C: 151 % of control [survivor count not shown]
dose: 2.6 mg/kg/injection, schedule: Q01DX015 (ip), vehicle: saline
  T/C: 118 % of control [survivor count not shown]
dose: 4.0 mg/kg/injection, schedule: Q01DX015 (ip), vehicle: saline
  T/C: 138 % of control [survivor count not shown]
dose: 5.2 mg/kg/injection, schedule: Q01DX001 (ip), vehicle: other
  T/C: 123 % of control [survivor count not shown]
dose: 5.5 mg/kg/injection, schedule: Q01DX001 (ip), vehicle: saline
  T/C: 126 % of control [survivor count not shown]
dose: 6.0 mg/kg/injection, schedule: Q01DX015 (ip), vehicle: saline
  T/C: 144 % of control [survivor count not shown]
dose: 8.0 mg/kg/injection, schedule: Q01DX001 (ip), vehicle: other
  T/C: 143 % of control [survivor count not shown]
dose: 8.3 mg/kg/injection, schedule: Q01DX001 (ip), vehicle: saline
  T/C: 134 % of control [survivor count not shown]
dose: 9.0 mg/kg/injection, schedule: Q01DX015 (ip), vehicle: saline
  T/C: 100 % of control [survivor count not shown]
dose: 12.0 mg/kg/injection, schedule: Q01DX001 (ip), vehicle: other
  T/C: 125 % of control [survivor count not shown]
dose: 12.5 mg/kg/injection, schedule: Q01DX001 (ip), vehicle: saline
  T/C: 126 [survivor count not shown] and 146 % of control [survivor count not shown]
dose: 18.0 mg/kg/injection, schedule: Q01DX001 (ip), vehicle: other
  T/C: 141 % of control [survivor count not shown]
dose: 25.0 mg/kg/injection, schedule: Q01DX001 (ip), vehicle: saline
  T/C: 93 % of control [survivor count not shown]
dose: 15.6 micrograms/kg/injection, schedule: Q04DX003 (ip), vehicle: saline
  T/C: 118 % of control [survivor count not shown]
dose: 31.2 micrograms/kg/injection, schedule: Q04DX003 (ip), vehicle: saline
  T/C: 107 % of control [survivor count not shown]
dose: 62.5 micrograms/kg/injection, schedule: Q04DX003 (ip), vehicle: saline
  T/C: 103 % of control [survivor count not shown]
dose: 125.0 micrograms/kg/injection, schedule: Q04DX003 (ip), vehicle: saline
  T/C: 108 % of control [survivor count not shown]
dose: 250.0 micrograms/kg/injection, schedule: Q04DX003 (ip), vehicle: saline
  T/C: 102 % of control [survivor count not shown]
dose: 500.0 micrograms/kg/injection, schedule: Q04DX003 (ip), vehicle: saline
  T/C: 121 % of control [survivor count not shown]

## ClCCN(CCCl)c1ccc(Oc2ccccc2)cc1
dose: 100.0 mg/kg/injection, schedule: Q01DX001 (ip), vehicle: acetone
  T/C: 98 % of control [survivor count not shown]
dose: 100.0 mg/kg/injection, schedule: Q01DX009 (ip), vehicle: saline
  T/C: 120 % of control [survivor count not shown]
dose: 100.0 mg/kg/injection, schedule: Q01DX Z (ip), vehicle: carboxymethylcellulose (CMC)
  T/C: 107 % of control [survivor count not shown]
dose: 100.0 mg/kg/injection, schedule: Q04DX003 (ip), vehicle: saline
  T/C: 105 % of control [survivor count not shown]
dose: 200.0 mg/kg/injection, schedule: Q01DX001 (ip), vehicle: acetone
  T/C: 92 % of control [survivor count not shown]
dose: 200.0 mg/kg/injection, schedule: Q01DX009 (ip), vehicle: saline
  T/C: 111 % of control [survivor count not shown]
dose: 200.0 mg/kg/injection, schedule: Q01DX Z (ip), vehicle: carboxymethylcellulose (CMC)
  T/C: 98 % of control [survivor count not shown]
dose: 200.0 mg/kg/injection, schedule: Q04DX003 (ip), vehicle: saline
  T/C: 106 % of control [survivor count not shown]
dose: 400.0 mg/kg/injection, schedule: Q01DX001 (ip), vehicle: acetone
  T/C: 93 % of control [survivor count not shown]
dose: 400.0 mg/kg/injection, schedule: Q01DX009 (ip), vehicle: saline
  T/C: 118 % of control [survivor count not shown]
dose: 400.0 mg/kg/injection, schedule: Q01DX Z (ip), vehicle: carboxymethylcellulose (CMC)
  T/C: 98 % of control [survivor count not shown]
dose: 400.0 mg/kg/injection, schedule: Q04DX003 (ip), vehicle: saline
  T/C: 106 % of control [survivor count not shown]
dose: 800.0 mg/kg/injection, schedule: Q01DX Z (ip), vehicle: carboxymethylcellulose (CMC)
  T/C: 108 % of control [survivor count not shown]

## O=C(O)CN(CCCl)CCCl
dose: 0.13 mg/kg/injection, schedule: Q01DX Z (ip), vehicle: saline
  T/C: 105 % of control [survivor count not shown]
dose: 0.25 mg/kg/injection, schedule: Q01DX Z (ip), vehicle: saline
  T/C: 105 % of control [survivor count not shown]
dose: 0.5 mg/kg/injection, schedule: Q01DX Z (ip), vehicle: saline
  T/C: 105 % of control [survivor count not shown]
dose: 0.63 mg/kg/injection, schedule: Q01DX009 (ip), vehicle: saline
  T/C: 117 % of control [survivor count not shown] (2×)
dose: 1.0 mg/kg/injection, schedule: Q01DX Z (ip), vehicle: saline
  T/C: 109 [survivor count not shown] and 126 % of control [survivor count not shown]
dose: 1.25 mg/kg/injection, schedule: Q01DX009 (ip), vehicle: saline
  T/C: 131 [survivor count not shown] and 140 % of control [survivor count not shown]
dose: 1.25 mg/kg/injection, schedule: Q01DX010 (ip), vehicle: saline
  T/C: 138 % of control [survivor count not shown]
dose: 2.0 mg/kg/injection, schedule: Q01DX Z (ip), vehicle: saline
  T/C: 121 % of control [survivor count not shown]
dose: 2.5 mg/kg/injection, schedule: Q01DX009 (ip), vehicle: saline
  T/C: 136 [survivor count not shown] and 139 % of control [survivor count not shown]
dose: 2.5 mg/kg/injection, schedule: Q01DX010 (ip), vehicle: saline
  T/C: 143 % of control [survivor count not shown]
dose: 3.13 mg/kg/injection, schedule: Q01DX010 (ip), vehicle: saline
  T/C: 130 % of control [survivor count not shown]
dose: 4.0 mg/kg/injection, schedule: Q01DX Z (ip), vehicle: saline
  T/C: 122 % of control [survivor count not shown]
dose: 5.0 mg/kg/injection, schedule: Q01DX009 (ip), vehicle: saline
  T/C: 137 [survivor count not shown] and 185 % of control [survivor count not shown]
dose: 6.25 mg/kg/injection, schedule: Q01DX010 (ip), vehicle: saline
  T/C: 105 % of control [survivor count not shown]
dose: 8.0 mg/kg/injection, schedule: Q01DX Z (ip), vehicle: saline
  T/C: 93 % of control [survivor count not shown]

## ClCCN1C(c2ccccc2)C1c1ccccc1 (stereo not drawn)
dose: 100.0 mg/kg/injection, schedule: Q04DX003 (ip), vehicle: Klucel (hydroxypropylcellulose) (HPC)
  T/C: 96 % of control [survivor count not shown]
dose: 200.0 mg/kg/injection, schedule: Q04DX003 (ip), vehicle: Klucel (hydroxypropylcellulose) (HPC)
  T/C: 97 % of control [survivor count not shown]

## O=C1C(SCCCl)=C(SCCCl)C(=O)c2[nH]cnc21
dose: 50.0 mg/kg/injection, schedule: Q01DX001 (ip), vehicle: carboxymethylcellulose (CMC)
  T/C: 107 % of control [survivor count not shown]
dose: 100.0 mg/kg/injection, schedule: Q01DX001 (ip), vehicle: carboxymethylcellulose (CMC)
  T/C: 107 % of control [survivor count not shown]
